In US20240301319A1, “PERFUMING COMPOSITIONS” (FIRMNICH SA, priority 2017, published 2024):
Counter-ions that a name gives are not always drawn.

Assay: Odor threshold and odor value of perfuming compounds (Tables 4 to 10)
Details: Table 6, perfuming compounds having a fruity note

SMILES	Odor Threshold [μg/l air]
C=CC(=C)CCC=C(C)C	4.12E−02
CC/C=C\CCOC(=O)C(C)C [(Z)-3-HEXENYL ISOBUTYRATE]	4.54E−02
CC1(C)C2CC[C@@]1(C)C(=O)C2 (single isomer, unassigned; (+))	1.72E−01
C/C=C/c1ccc(OC)cc1 [1-methoxy-4-[(1E)-1-propen-1-yl]benzene]	1.23E−03
CCCCCC(C#N)CCC (racemic) [(+−)-2-propylheptanenitrile]	7.83E−02
C=C1CCCC(C)(C)C1C(=O)/C=C/C (racemic)	3.73E−03
C=CC(CCCCC)OC(C)=O (racemic) [(+−)-1-PENTYL-2-PROPENYL ACETATE]	4.84E−02
C=C1CCCC(C)(C)C1C(=O)OC (racemic)	5.78E−04
C=CC(C)(O)CCC=C(C)C (racemic) [(+−)-3,7-dimethyl-1,6-octadien-3-ol]	8.89E−05
C=CC(C)=CCC=C(C)C	2.57E−02
Cc1ccc(OC(=O)C(C)C)cc1 [4-METHYLPHENYL ISOBUTYRATE]	1.66E−05
CC/C=C\CCOC(=O)CCC [(3Z)-3-hexen-1-yl butyrate]	7.85E−02
CC(OC=O)C1CCCC(C)(C)C1 (stereo not shown)	2.05E−01
COC(=O)Cc1ccccc1 [METHYL PHENYLACETATE]	3.21E−04
CCCC(=O)OCC [ETHYL BUTANOATE]	3.68E−04
CC(O)c1ccccc1 (stereo not shown) [1-PHENYL-1-ETHANOL]	2.98E−01
C=C(C)CC(C)OC(=O)C(C)C (racemic)	2.26E−01
CC/C=C\CCOC(=O)C(C)CC (racemic) [(+−)-(Z)-3-HEXENYL 2-METHYLBUTANOATE]	1.96E−02
CC(=O)OCc1ccccc1 [benzyl acetate]	5.24E−03
C[C@@H]1CC[C@@H](C(C)(C)S)C(=O)C1 [(1R,4R)-8-MERCAPTO-3-P-MENTHANONE]	3.43E−05
OCCc1ccccc1 [2-PHENYLETHANOL]	1.02E−04
CCOC(=O)/C(C)=C/C(C)C [ethyl (2E)-2,4-dimethyl-2-pentenoate]	9.55E−03
CCCCCC1CCCC1=O (racemic) [(+−)-2-pentylcyclopentanone]	1.28E−03
CCOC(=O)C1=C(C)C=CCC1(C)C	4.40E−03
CCCOC(=O)[C@H](C)OC(C)(C)CC	4.98E−01
CCOC(=O)CC1(C)OCCO1 [ETHYL 2-METHYL-1,3-DIOXOLANE-2-ACETATE]	1.62E−03
CCCCCC/C=C/C(=O)OC [methyl (2E)-2-nonenoate]	5.84E−02

SMILES	Odor Threshold [μg/l air]
C=CC(C)CC(=O)CC(C)C (racemic)	2.78E−01
CCCCCCC(C)=O [2-OCTANONE]	5.37E−02
CCC(=O)CC(C)CC (stereo not shown) [5-METHYL-3-HEPTANONE]	9.87E−02
CCCCCC(=O)OCC [ETHYL HEXANOATE]	9.11E−04
CCCCCCCOC(C)=O [heptyl acetate]	1.32E−01
CC(=O)CCc1ccccc1 [4-PHENYL-2-BUTANONE]	2.22E−04
CCCCCC(C)=O [2-HEPTANONE]	5.85E−02
CCOC(=O)C(C)C [ETHYL ISOBUTYRATE]	1.14E−04
CC(=O)OCC=C(C)C [3-methyl-2-buten-1-yl acetate]	5.58E−02
C/C=C(\C)C(=O)OCCCCCC [hexyl (2E)-2-methyl-2-butenoate]	1.16E−02
CC/C=C\CCOC=O [(Z)-3-HEXENYL FORMATE]	2.11E−03
COC(=O)C=C1CCCC1 [methyl cyclopentylideneacetate]	2.80E−02
CCCCCCC(=O)OCC [ethyl heptanoate]	7.17E−03
C=CC(C)(CCC=C(C)C)OC(C)=O (racemic) [(+−)-1,5-DIMETHYL-1-VINYL-4-HEXENYL ACETATE]	7.40E−02
CCCCCC1(C)CCC(C)(C)C1=O (racemic)	3.25E−02
CCCCCC(=O)CC [3-OCTANONE]	4.53E−02
CCOC(=O)CC(C)=O	5.83E−02
CC/C=C\CCOC(=O)OC [(3Z)-hex-3-en-1-yl methyl carbonate]	4.58E−02
CC(=O)CCC=C(C)C [6-METHYL-5-HEPTEN-2-ONE]	1.06E−01
CCCC(C)C(=O)OCC (racemic) [(+−)-ETHYL 2-METHYLPENTANOATE]	3.84E−05
CC(C)CC(=O)O [3-METHYLBUTANOIC ACID]	2.23E−04
CC(=O)OC(C)c1ccccc1 (racemic) [(+−)-1-PHENYLETHYL ACETATE]	4.43E−02
CC(=O)OCCC1CCCCC1 [2-CYCLOHEXYL ETHYL ACETATE]	4.49E−02
CCC(C)C(=O)OC(C)C (racemic) [(+−)-ISOPROPYL 2-METHYLBUTANOATE]	8.42E−03
CC(C)(C)Cc1cccnc1 [3-(2,2-DIMETHYLPROPYL)PYRIDINE]	2.82E−03
CCCCOC(C)=O [BUTYL ACETATE]	4.18E−01
CCCCCCCCOC(C)=O [octyl acetate]	1.76E−01

SMILES	Odor Threshold [μg/l air]
CCCc1ccc(OC)cc1 [1-METHOXY-4-PROPYLBENZENE]	5.37E−04
CCC/C=C/C=O [(2E)-2-HEXENAL]	2.53E−03
CCCC(C)COC(=O)C(C)CCC (stereo not shown) [2-METHYLPENTYL 2-METHYLPENTANOATE]	2.41E−01
COCC(C)Cc1ccccc1 (racemic) [(+−)-(3-methoxy-2-methylpropyl)benzene]	1.51E−02
CCOC(=O)C(C)CC (racemic) [(+−)-ethyl 2-methylbutanoate]	1.26E−04
CC(=O)OC(CC(C)C)CC(C)C [1-ISOBUTYL-3-METHYLBUTYL ACETATE]	1.62E+00
C=CCOC(=O)CCCCC [ALLYL HEXANOATE]	4.58E−02
C=C(C)C1CC=C(C)CC1 (single isomer, unassigned; (+)) [(+)-LIMONENE]	1.29E−01
CC1CC(C)(c2ccccc2)CO1 (racemic)	5.04E−04
C=CCOC(=O)CCCCCC [ALLYL HEPTANOATE]	1.75E−02
CCCCC(CC)C(=O)OC (racemic) [(+−)-methyl 2-ethylhexanoate]	1.74E−01
CCCCCC(=O)OC [METHYL HEXANOATE]	8.43E−02
CC/C=C\CCOC(=O)C/C=C\CC [(3Z)-3-hexen-1-yl (3Z)-3-hexenoate]	5.17E−02
CCCCCCOC(C)=O [HEXYL ACETATE]	1.32E−01
CCOC(=O)Cc1ccccc1 [ETHYL PHENYLACETATE]	4.19E−04
CC(=O)OC(C)(C)Cc1ccccc1 [1,1-DIMETHYL-2-PHENYLETHYL ACETATE]	5.16E−02
CCC/C=C/COC(C)=O [(E)-2-HEXENYL ACETATE]	2.08E−01
C=C(C)CC(C(C)=O)C(=O)OCC (racemic)	3.64E−03
CC(C)=CCCC(C)C=O (racemic)	2.11E−04
CCCCCCOC(=O)C(C)C [hexyl 2-methylpropanoate]	7.15E−01
CC(C)=CCCC(C)CCOC=O (racemic) [(+−)-3,7-DIMETHYL-6-OCTENYL FORMATE]	1.72E−03
CC(=O)OCCc1ccccc1 [2-PHENYLETHYL ACETATE]	2.14E−03
CCCC(S)CCOC(C)=O (racemic) [(+−)-3-mercaptohexyl acetate]	2.72E−06
CC(=O)OCCC(C)CC(C)(C)C (stereo not shown) [3,5,5-TRIMETHYLHEXYL ACETATE]	1.28E+00
O=COCCc1ccccc1 [2-PHENYLETHYL FORMATE]	8.34E−04
